Consider five molecules from paper PMC10696399.

Chains of the proteins cited; added tags and fusions are not shown.
UniProt Q00610: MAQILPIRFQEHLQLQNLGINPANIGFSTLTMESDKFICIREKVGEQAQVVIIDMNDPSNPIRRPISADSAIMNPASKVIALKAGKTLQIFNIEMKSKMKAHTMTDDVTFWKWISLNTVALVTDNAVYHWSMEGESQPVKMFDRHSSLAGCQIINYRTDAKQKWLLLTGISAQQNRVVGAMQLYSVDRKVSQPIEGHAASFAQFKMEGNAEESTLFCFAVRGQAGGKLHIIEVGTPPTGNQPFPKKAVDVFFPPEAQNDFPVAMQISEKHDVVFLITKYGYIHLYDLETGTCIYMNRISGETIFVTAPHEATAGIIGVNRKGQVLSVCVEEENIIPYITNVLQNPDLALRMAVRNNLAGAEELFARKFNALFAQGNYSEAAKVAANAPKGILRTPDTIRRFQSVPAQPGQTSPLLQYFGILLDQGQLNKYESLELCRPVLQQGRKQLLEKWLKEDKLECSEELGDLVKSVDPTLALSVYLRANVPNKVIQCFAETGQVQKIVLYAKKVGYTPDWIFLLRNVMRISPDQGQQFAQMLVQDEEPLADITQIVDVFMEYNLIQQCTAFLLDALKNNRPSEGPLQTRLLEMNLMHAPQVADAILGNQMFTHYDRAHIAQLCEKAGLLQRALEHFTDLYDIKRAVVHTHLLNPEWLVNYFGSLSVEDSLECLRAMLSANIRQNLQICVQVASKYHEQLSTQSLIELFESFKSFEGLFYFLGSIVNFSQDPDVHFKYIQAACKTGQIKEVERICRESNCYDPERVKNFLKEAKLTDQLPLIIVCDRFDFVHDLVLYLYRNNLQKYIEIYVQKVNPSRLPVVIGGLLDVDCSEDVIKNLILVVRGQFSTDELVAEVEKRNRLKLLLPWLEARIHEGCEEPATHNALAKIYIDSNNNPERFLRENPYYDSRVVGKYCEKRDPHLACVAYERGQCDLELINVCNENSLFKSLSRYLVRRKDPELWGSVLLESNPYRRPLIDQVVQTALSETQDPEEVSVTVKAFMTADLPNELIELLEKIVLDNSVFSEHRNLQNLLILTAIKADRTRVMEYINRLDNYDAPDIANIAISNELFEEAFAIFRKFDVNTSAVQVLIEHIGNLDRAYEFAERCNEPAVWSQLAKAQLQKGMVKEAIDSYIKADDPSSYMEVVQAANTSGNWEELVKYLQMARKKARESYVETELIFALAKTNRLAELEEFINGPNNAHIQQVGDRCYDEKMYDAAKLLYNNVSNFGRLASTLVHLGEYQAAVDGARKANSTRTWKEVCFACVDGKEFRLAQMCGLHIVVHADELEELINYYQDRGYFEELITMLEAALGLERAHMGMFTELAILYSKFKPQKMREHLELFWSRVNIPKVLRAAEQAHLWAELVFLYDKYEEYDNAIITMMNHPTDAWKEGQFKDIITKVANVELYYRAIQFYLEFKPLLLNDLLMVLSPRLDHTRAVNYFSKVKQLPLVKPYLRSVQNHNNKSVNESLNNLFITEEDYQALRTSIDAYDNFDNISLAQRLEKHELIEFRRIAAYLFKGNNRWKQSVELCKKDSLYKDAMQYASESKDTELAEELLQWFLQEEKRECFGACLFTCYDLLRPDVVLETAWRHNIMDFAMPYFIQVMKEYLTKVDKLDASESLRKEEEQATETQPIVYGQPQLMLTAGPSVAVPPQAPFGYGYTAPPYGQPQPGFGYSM

Assay [1] addresses T1, FLAG-tagged SopD2 (S. Typhimurium strain SL1344) (UniProt Q8ZQC8).
T1 sequence: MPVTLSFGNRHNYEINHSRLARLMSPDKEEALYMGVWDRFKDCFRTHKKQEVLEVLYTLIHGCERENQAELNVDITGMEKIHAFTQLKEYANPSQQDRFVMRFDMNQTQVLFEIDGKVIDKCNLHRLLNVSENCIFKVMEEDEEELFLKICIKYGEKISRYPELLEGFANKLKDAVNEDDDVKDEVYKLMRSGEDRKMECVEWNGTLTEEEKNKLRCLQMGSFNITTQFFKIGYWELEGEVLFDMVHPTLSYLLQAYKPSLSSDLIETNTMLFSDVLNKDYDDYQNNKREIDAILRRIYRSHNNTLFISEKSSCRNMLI
Description: affinity purification with mass spectrometry.

For assay [2], the target named is T2, FLAG-tagged SpvB (S. Typhimurium strain SL1344) (UniProt P21454).
T2 sequence: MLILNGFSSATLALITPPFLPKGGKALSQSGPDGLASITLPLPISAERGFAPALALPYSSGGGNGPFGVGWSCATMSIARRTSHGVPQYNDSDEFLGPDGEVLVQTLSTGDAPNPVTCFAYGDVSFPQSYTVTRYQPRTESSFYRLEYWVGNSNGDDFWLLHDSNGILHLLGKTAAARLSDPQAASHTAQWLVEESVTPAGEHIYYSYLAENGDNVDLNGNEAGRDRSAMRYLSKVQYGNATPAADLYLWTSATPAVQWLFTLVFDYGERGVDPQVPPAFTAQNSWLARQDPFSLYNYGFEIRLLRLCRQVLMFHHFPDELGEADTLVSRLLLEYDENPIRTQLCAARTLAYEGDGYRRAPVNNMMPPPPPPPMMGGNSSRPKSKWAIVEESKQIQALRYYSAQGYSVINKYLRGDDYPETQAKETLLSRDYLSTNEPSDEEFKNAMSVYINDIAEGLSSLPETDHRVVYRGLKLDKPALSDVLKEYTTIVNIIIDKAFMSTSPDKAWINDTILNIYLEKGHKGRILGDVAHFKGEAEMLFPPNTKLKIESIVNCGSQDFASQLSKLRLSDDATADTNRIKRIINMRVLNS
The assay can be described thus: affinity purification with mass spectrometry.

Results are given in words; binding and its absence hold for the method and conditions named. Binding seen in cells or lysates may run through a third protein. These calls come from enrichment with a bait or labelling near it, and not all partners need be listed. For part of these data: No binding means not detected with the bait. Where a sequence is shown, tags or fusion partners need not be part of it.

For the molecule “AP-1γ (endogenous) (human (endogenous in HEK293T))”, the binding result in assay [1] is “no binding”; in assay [2], “binds”.

For “AP-1μ (endogenous) (human (endogenous in HEK293T))”, the values for the binding result in assay [1] and in assay [2] were “no binding” and “binds”, respectively.

As for “clathrin heavy chain (endogenous) (from UniProt Q00610 1-1675)”, the binding result in assay [1] is listed as “no binding”; in assay [2], “binds”.

B1: TAB2 (endogenous) (protein, UniProt Q9NYJ8 1-693)
chain: MAQGSHQIDFQVLHDLRQKFPEVPEVVVSRCMLQNNNNLDACCAVLSQESTRYLYGEGDLNFSDDSGISGLRNHMTSLNLDLQSQNIYHHGREGSRMNGSRTLTHSISDGQLQGGQSNSELFQQEPQTAPAQVPQGFNVFGMSSSSGASNSAPHLGFHLGSKGTSSLSQQTPRFNPIMVTLAPNIQTGRNTPTSLHIHGVPPPVLNSPQGNSIYIRPYITTPGGTTRQTQQHSGWVSQFNPMNPQQVYQPSQPGPWTTCPASNPLSHTSSQQPNQQGHQTSHVYMPISSPTTSQPPTIHSSGSSQSSAHSQYNIQNISTGPRKNQIEIKLEPPQRNNSSKLRSSGPRTSSTSSSVNSQTLNRNQPTVYIAASPPNTDELMSRSQPKVYISANAATGDEQVMRNQPTLFISTNSGASAASRNMSGQVSMGPAFIHHHPPKSRAIGNNSATSPRVVVTQPNTKYTFKITVSPNKPPAVSPGVVSPTFELTNLLNHPDHYVETENIQHLTDPTLAHVDRISETRKLSMGSDDAAYTQALLVHQKARMERLQRELEIQKKKLDKLKSEVNEMENNLTRRRLKRSNSISQIPSLEEMQQLRSCNRQLQIDIDCLTKEIDLFQARGPHFNPSAIHNFYDNIGFVGPVPPKPKDQRSIIKTPKTQDTEDDEGAQWNCTACTFLNHPALIRCEQCEMPRHF
With B1, the binding entry in assay [2] is listed as “binds”.

B2: AP-1β (endogenous) (protein, UniProt Q10567 1-949)
chain: MTDSKYFTTTKKGEIFELKAELNSDKKEKKKEAVKKVIASMTVGKDVSALFPDVVNCMQTDNLELKKLVYLYLMNYAKSQPDMAIMAVNTFVKDCEDPNPLIRALAVRTMGCIRVDKITEYLCEPLRKCLKDEDPYVRKTAAVCVAKLHDINAQLVEDQGFLDTLKDLISDSNPMVVANAVAALSEIAESHPSSNLLDLNPQSINKLLTALNECTEWGQIFILDCLANYMPKDDREAQSICERVTPRLSHANSAVVLSAVKVLMKFMEMLSKDLDYYGTLLKKLAPPLVTLLSAEPELQYVALRNINLIVQKRPEILKHEMKVFFVKYNDPIYVKLEKLDIMIRLASQANIAQVLAELKEYATEVDVDFVRKAVRAIGRCAIKVEQSAERCVSTLLDLIQTKVNYVVQEAIVVIKDIFRKYPNKYESVIATLCENLDSLDEPEARAAMIWIVGEYAERIDNADELLESFLEGFHDESTQVQLQLLTAIVKLFLKKPTETQELVQQVLSLATQDSDNPDLRDRGYIYWRLLSTDPVAAKEVVLAEKPLISEETDLIEPTLLDELICYIGTLASVYHKPPSAFVEGGRGVVHKSLPPRTASSESAESPETAPTGAPPGEQPDVIPAQGDLLGDLLNLDLGPPVSGPPLATSSVQMGAVDLLGGGLDSLMGDEPEGIGGTNFVAPPTAAVPANLGAPIGSGLSDLFDLTSGVGTLSGSYVAPKAVWLPAMKAKGLEISGTFTRQVGSISMDLQLTNKALQVMTDFAIQFNRNSFGLAPAAPLQVHAPLSPNQTVEISLPLSTVGSVMKMEPLNNLQVAVKNNIDVFYFSTLYPLHILFVEDGKMDRQMFLATWKDIPNENEAQFQIRDCPLNAEAASSKLQSSNIFTVAKRNVEGQDMLYQSLKLTNGIWVLAELRIQPGNPSCTDLELSLKCRAPEVSQHVYQAYETILKN
In the case of B2, the values for the binding entry in assay [1] and in assay [2] were “no binding” and “binds”, respectively.
